For test [1], the target named is human TIGIT expressed on cells (human) (UniProt Q495A1). Description: flow cytometry on Jurkat-hTIGIT.
Test [2] has the same target. Nature of the test: flow cytometry on Jurkat-hTIGIT, detected with anti-human Ig (Fc gamma)-PE. Background: Flow cytometry measures light scatter and fluorescence of single cells or particles in a stream.
For test [3] the target is unchanged. Nature of the test: flow cytometry on PBMC of cancer patients, MFI TIGIT on gated TIGIT+CD8+ T cells.
Test [4] shares this target. Nature of the test: flow cytometry on PBMC of healthy human donors, MFI TIGIT on gated TIGIT+CD8+ T cells.
The target is the same in test [5]. Description: flow cytometry competition on Jurkat-hTIGIT: cells incubated with the antibody, washed, then CD155-His at 15 µg/ml, bound CD155 detected with anti-His-PE.
Test [6] deals with cynomolgus TIGIT on primary CD8+ T cells (Macaca fascicularis (cynomolgus)). Nature of the test: flow cytometry on stimulated cynomolgus PBMC, % TIGIT+ gated on CD69+CD8+ T cells.

Amino acid sequences for entries named in this document (tags omitted). Residues count along the entry.
UniProt Q495A1, residues 22-244: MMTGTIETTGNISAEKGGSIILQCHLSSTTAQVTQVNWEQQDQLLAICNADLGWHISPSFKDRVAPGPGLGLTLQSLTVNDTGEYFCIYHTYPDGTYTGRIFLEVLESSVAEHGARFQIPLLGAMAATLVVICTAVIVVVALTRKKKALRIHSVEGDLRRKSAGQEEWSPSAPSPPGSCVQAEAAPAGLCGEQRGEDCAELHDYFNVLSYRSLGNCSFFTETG

No constants are given. Whether binding was seen depends on the method and setting. Some binding calls cover weakened binding; strength is not graded here.

B1: 313M32 (comparative anti-TIGIT antibody, human IgG1) (antibody, V domains shown)
VH: QVQLQESGPGLVKPSETLSLTCAVSGYSITSDYAWNWIRQPPGKGLEWIGYISYSGSTSYNPSLRSRVTISRDTSKNQFFLKLSSVTAADTAVYYCARRQVGLGFAYWGQGTLVTVSS
VL: DIQMTQSPSSLSASVGDRVTITCKASQDVSTAVAWYQQKPGKAPKLLIYSASYRYTGVPSRFSGSGSGTDFTFTISSLQPEDIATYYCQQHYSTPWTFG
With B1, the binding result in test [1], in test [2], in test [3], in test [4] and in test [5] was “binds” each time.

B2: anti-TIGIT antibody clone 29520 (IgG) (antibody, V domains shown)
VH: QVQLVESGGGLVQPGRSLRLSCAASGFTFRDYAMHWVRQAPGKGLEWVSGITWNSGLIGYADSVKGRFTISRDNAKNSLYLQMNSLRAEDTALYYCAKPVPRLRGLDVWGQGTMVTVSS
VL: DIQLTQSPSSVSASVGDRVTITCRASQGISSWLAWYQQKPGKAPKLLIYGASSLQSGVPSRFSGSGSGTDFTLTISSLQPEDFATYYCQQAFYLPWTFGGGTKVEIK
Regarding B2, the binding result in test [6] is “binds”.

B3: anti-TIGIT antibody clone 29527 (IgG) (antibody, V domains shown)
VH: QVQLVESGGGVVQPGRSLRLSCAASGFTFSSSYMHWVRQAPGKGLEWVAVIGADGSNKYYADSVEGRFTISRDNSKNTLYLQMNSLRAEDTALYYCAKPVPRRRGLDVWGQGTMVTVSS
VL: B2 VL
With B3, the binding entry in test [6] is “binds”.

The values are drawn from patent US20200407445A1.
